Earlier results, collected in PMC6149861, “Identification, In Vitro Testing and Molecular Docking Studies of Microginins’ Mechanism of Angiotensin-Converting Enzyme Inhibition” (Molecules : A Journal of Synthetic Chemistry and Natural …, 2017).

System: human ACE
Conditions: co-crystal structure; ref PDB: 2X8Z; cited from earlier work

C[C@H](CS)C(=O)N1CCC[C@H]1C(=O)O [captopril]
distance sulphur atom to zinc: 2.1 Å | hydrogen bond with Tyr507 and His337 (in words): the residues Tyr507 and His337 show a hydrogen bond with captopril and microginin | location of ring in ACE (in words): located in the S2-pocket of the ACE
